Library screening results

Protein sequences, listed by entry. Tags and fused reporters are not part of them.
UniProt E9BF75, entry or part of it: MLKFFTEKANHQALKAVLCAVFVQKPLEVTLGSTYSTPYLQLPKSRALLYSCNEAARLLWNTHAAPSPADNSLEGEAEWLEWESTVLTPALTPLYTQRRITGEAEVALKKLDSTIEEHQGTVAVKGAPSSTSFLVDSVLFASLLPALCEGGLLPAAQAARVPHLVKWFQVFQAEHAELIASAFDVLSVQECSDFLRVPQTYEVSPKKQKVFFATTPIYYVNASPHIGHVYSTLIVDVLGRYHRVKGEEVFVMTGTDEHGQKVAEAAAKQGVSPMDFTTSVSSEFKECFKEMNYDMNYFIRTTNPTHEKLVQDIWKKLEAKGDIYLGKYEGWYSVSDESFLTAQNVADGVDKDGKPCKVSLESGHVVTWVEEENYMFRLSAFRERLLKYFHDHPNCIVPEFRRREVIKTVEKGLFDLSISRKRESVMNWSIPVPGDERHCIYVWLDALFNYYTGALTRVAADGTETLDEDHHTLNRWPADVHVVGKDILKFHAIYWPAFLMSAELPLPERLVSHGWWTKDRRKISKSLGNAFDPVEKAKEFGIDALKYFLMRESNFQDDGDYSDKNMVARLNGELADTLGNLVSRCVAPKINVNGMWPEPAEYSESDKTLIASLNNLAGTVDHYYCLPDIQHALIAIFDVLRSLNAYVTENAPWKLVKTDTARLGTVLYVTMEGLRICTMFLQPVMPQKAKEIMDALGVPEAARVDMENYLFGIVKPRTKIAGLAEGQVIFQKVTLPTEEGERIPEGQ

The values are deposited in ChEMBL (CHEMBL3988442, “University of Dundee, Small-Polar-MMV Screening Library” (2021)).

Mtb heat-shock: 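Assay on Mycobacterium tuberculosis, filed only as a heat shock assay from Cornell; the read-out is not stated. The concentration is filed as 10 mM, unlikely as a test dose, so the dose is not known. Direction is inferred from retests: higher values go with stronger inhibition. Of about 69,000 compounds tested this way, about 930 (1.4%) reached 50% or more in at least one test.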
LdMetRS: 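Primary screen of methionyl-tRNA synthetase; the read-out is not stated. Target: Methionyl-tRNA synthetase (putative), Leishmania donovani (UniProt E9BF75). The test concentration is not given. Values are per cent inhibition. Of about 68,000 compounds tested this way, about 24 (0.035%) reached 50% or more in at least one test.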
Mtb growth Cornell: 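Whole-cell assay for inhibitors of Mycobacterium tuberculosis growth, labelled Cornell in the record; the read-out is not stated. The concentration is filed as 10 mM, unlikely as a test dose, so the dose is not known. The record gives no direction; compounds strong in two other growth screens of this library score well above the rest, so higher reads as stronger inhibition. About 53,000 compounds were tested under these conditions; 1.7% (about 900) showed 50% or more at least once.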

Results are percentages, as filed.
The record does not define 0% and 100%; most values in the screen are far below 50% and negative numbers occur (in some assays of this library far below -100).
Compounds were drawn at random from those tested, without regard to their results.
A dash means the value is not listed here; it may have been measured.

Result for [H][C@@]12CS(=O)(=O)C[C@]1([H])N(Cc1ncc[nH]1)CCN2Cc1cccnc1 was Mtb heat-shock: 10.28%; Mtb growth Cornell: -29.15%.
Result for Cc1nc2c(c(NCc3ccc(-c4ccccn4)s3)n1)CCNCC2 was Mtb heat-shock: -21.22%; LdMetRS: -3.846%; Mtb growth Cornell: 10.6%.
Result for Cc1ccc(N2C[C@H]3CCN(Cc4ccncc4)C[C@H]3C2)nn1 was LdMetRS: 10.56%.
Result for O=C1N(Cc2ccccn2)C[C@H]2CN(C3CCOCC3)CCN12 was LdMetRS: 5.263%.
Result for CCNC(=O)NC(C)(C)C(=O)NCc1cccc(N2CC=CC2)c1 was Mtb heat-shock: 13.32%; LdMetRS: 1.928%; Mtb growth Cornell: -14.38%.
Result for O=C(Cn1ccc2c(Cl)cccc21)N[C@@H](C(=O)O)c1ccccc1 was Mtb heat-shock: 2.889%; LdMetRS: 14.52%.
Result for CCCN(C(=O)c1cnc(C)cn1)c1nc2c(s1)CCc1c-2cnn1C was Mtb heat-shock: -19.73%; LdMetRS: 16.67%; Mtb growth Cornell: 19.11%.
Result for Cc1cccc2cc(CN3CCCN4CCC[C@H]4C3)c(=O)[nH]c12 was LdMetRS: 10.05%.
Result for O=C(O)C(F)(F)F.O=C(O)C(F)(F)F.O=C(O)C(F)(F)F.[H][C@]12C[C@@H](Cn3cccn3)N(c3nccs3)[C@@]1([H])CCN(C(C)C)C2 was Mtb heat-shock: -4.984%; Mtb growth Cornell: 6.253%.
Result for Cc1ccc(C(C)NC(=O)CNCCn2cccn2)cc1C (centres unmarked) was Mtb heat-shock: 3.523%; LdMetRS: 19.66%; Mtb growth Cornell: -7.397%.
Result for COCCCNC(=O)N1CCC(CNC(=O)c2cnn(C)c2)CC1 was Mtb heat-shock: 2.793%; LdMetRS: 11.97%; Mtb growth Cornell: -2.644%.
Result for Cc1ccc(CN2CCOC3(COCCN(S(C)(=O)=O)C3)C2)s1 (centres unmarked) was LdMetRS: 9.774%.
Result for Cc1ccc(Nc2cc(N3CCN(S(C)(=O)=O)CC3)nc(C)n2)cc1 was Mtb heat-shock: 16.28%; LdMetRS: 18.66%; Mtb growth Cornell: 41.89%.
Result for CCC(=O)NC1CCCN(c2cncc(OCc3ccccc3)n2)C1 (centres unmarked) was Mtb heat-shock: 2.979%; LdMetRS: 17.14%; Mtb growth Cornell: 8.989%.
Result for CC(NCc1ccccc1Cl)c1ccc2[nH]c(=O)[nH]c2c1 (centres unmarked) was Mtb heat-shock: -11.04%; LdMetRS: 9.444%; Mtb growth Cornell: -1.618%.
Result for [H][C@]12CC[C@](O)(c3cccc(OC)c3)[C@@]1([H])CN(C(=O)c1ccn(C)n1)C2 was Mtb heat-shock: 7.739%; Mtb growth Cornell: 1.198%.
Result for COc1ccnc(C(=O)N2CCCC(c3noc(C)n3)C2)c1 (centres unmarked) was Mtb heat-shock: 3.335%; LdMetRS: 2.347%; Mtb growth Cornell: 7.105%.
Result for F[C@@H]1CN(Cc2ccccc2)C[C@@H]1OCc1nc2cnccc2[nH]1 was Mtb heat-shock: -7.883%; LdMetRS: 8.271%; Mtb growth Cornell: -13.78%.
Result for Cc1nc(N2CCC(C(O)c3nccn3C)CC2)c2nc(C)oc2n1 (centres unmarked) was Mtb heat-shock: -55.2%; LdMetRS: 10.68%; Mtb growth Cornell: 4.685%.
Result for CCS(=O)(=O)CC(=O)NC(C)c1ccccc1Oc1ccccc1 (centres unmarked) was Mtb heat-shock: -19.13%; LdMetRS: 7.258%.
Result for Cc1nc2ccc(C(=O)N3CCn4c(C)nnc4C3)cc2nc1C was Mtb heat-shock: 5.172%; LdMetRS: 19.55%; Mtb growth Cornell: 18.93%.
Result for CC(C)(CN1CCC2(CCCNC2)C1)N1CCOCC1 (centres unmarked) was Mtb heat-shock: -49.08%; LdMetRS: 1.412%; Mtb growth Cornell: -32.98%.
Result for Cc1cc(C)c(C(=O)NC(CN2CCCC2)c2ccccc2)c(=O)[nH]1 (centres unmarked) was Mtb heat-shock: -20%; LdMetRS: 6.183%; Mtb growth Cornell: -25.53%.
Result for Cc1nc(CN2CCc3cnc(C(C)C)nc3C2)oc1C was Mtb heat-shock: 0.2083%; LdMetRS: 11.38%; Mtb growth Cornell: 10.29%.
Result for c1ccc(CN2CCC3(CC2)CC(Oc2cccnc2)C3)nc1 was LdMetRS: 11.2%.
Result for O=C(O)C(F)(F)F.O=C(O)C(F)(F)F.O=C(c1ccncc1)N1CCCn2c(CN3CCCC3)nnc2C1 was Mtb heat-shock: -0.2459%; Mtb growth Cornell: 26.81%.
Result for O=S(=O)(c1cccs1)N1CC[C@H](O)[C@@H]1Cc1ccncc1 was LdMetRS: 18.52%.
Result for CN1CCN(C(=O)C2CCN(c3cccnn3)CC2)CC1 was Mtb heat-shock: -10.16%; LdMetRS: 14.79%; Mtb growth Cornell: -0.4689%.
Result for CS(=O)(=O)N1CCCC1C(=O)Nc1cnc2n1CCCC2 (centres unmarked) was Mtb heat-shock: 1.356%; LdMetRS: 14.08%; Mtb growth Cornell: 9.053%.

For reference, 2 entries once more:

Compound,Mtb heat-shock,LdMetRS,Mtb growth Cornell
CCS(=O)(=O)CC(=O)NC(C)c1ccccc1Oc1ccccc1 (centres unmarked),-19.13%,7.258%,-
Cc1cccc2cc(CN3CCCN4CCC[C@H]4C3)c(=O)[nH]c12,-,10.05%,-